Values of other authors as cited in US20240417734A1, “Methods for Treating Glioblastoma by Targeting Oncomirs” (University of Connecticut, priority 2021, published 2024).
For at least one compound, name, drawing or mass did not settle the structure.

System: GBM
Settings: in combination with radiotherapy; radiotherapy alone 10.4%; cited from earlier work

**Q.** For `Cn1nnc2c(C(N)=O)ncn2c1=O` [TMZ, Temozolomide], which Two-year survival rate is on record?
**A.** 26.5%
